Data taken from US20190071513A1 (APTEVO RESEARCH AND DEVELOPMENT, published 2019).
No constants are given. Whether binding was seen depends on the method and setting. Some entries that bind do so weakly or less than the wild type. Tags and fused reporters may be left off the sequences shown.

The chains behind the UniProt entries cited, without tags or fusion partners. Residues count along the entry.
UniProt Q95LI5, residues 22-198: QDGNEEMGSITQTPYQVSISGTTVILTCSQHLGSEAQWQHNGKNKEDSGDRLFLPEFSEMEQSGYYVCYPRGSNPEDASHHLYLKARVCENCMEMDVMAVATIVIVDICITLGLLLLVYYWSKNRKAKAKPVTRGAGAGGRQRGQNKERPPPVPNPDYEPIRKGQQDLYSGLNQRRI

Biological target: cynomolgus CD3ε on cynomolgus T-cells (cynomolgus monkey) (UniProt Q95LI5)
Test: flow cytometry on Chinese cynomolgus macaque T-cells

B1: anti-CD3 scFv-Fc (the anti-CD3 binding domain in a mono-specific scFv-Fc fusion format) (Fc fusion, not shown: a dimerising Fc or GST)
chain: QVQLVQSGPEVKKPGSSVKVSCKASGYTFSRSTMHWVRQAPGQGLEWIGYINPSSAYTNYNQKFKDRVTITADKSTSTAYMELSSLRSEDTAVYYCARPQVHYDYNGFPYWGQGTLVTVSSGGGGSGGGGSGGGGSGGGGSDIQMTQSPSTLSASVGDRVTMTCSASSSVSYMNWYQQKPGKAPKRWIYDSSKLASGVPSRFSGSGSGTDYTLTISSLQPDDFATYYCQQWSRNPPTFGGGTKVEIKRSSS
  binding: binds
